Measured values published in patent US7326684B2 (priority 2002, dated 2008).

Assay: general procedure: peptide synthesis; pentafluorophenyl ethers of N-protected amino acids

| Substance | final HPLC purity (whole synthesis, 220 nm) [%] | cyclisation yield (cyclisation step, molar yield) [%] |
| --- | --- | --- |
| H-VKGFY-OH | 98 |  |
| cyclo(VKGFY) |  | 15 |
